PubChem BioAssay AID1259424, University of Nebraska Medical Center | 2018
This is an unselected part of about 14,000 deposited reagents. 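Higher correlation or smaller distance means closer resemblance to KSR1 loss; control wells, including KSR1 knockdowns, recur on many plates.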 Further read-outs or replicates are left out here. Reagent sequences are not shown. The record does not give: the time to read-out.

Purpose: 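Rank knockdowns across the genome by resemblance to the KSR1 depletion profile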 (primary screen)
Cell system: human HCT116 colon cancer cells
Reagents: siRNA pool against human genes, 50 nM
Measurement: 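Log2 levels of six mRNAs (branched-DNA multiplex), adjusted by two reference genes and the non-targeting median, then scored against the average KSR1 knockdown pattern as Pearson r and euclidean distance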
Reading the numbers: mean correlation with KSR1 profile: higher = expression change more like KSR1 knockdown; mean distance from KSR1 profile: higher = expression change less like KSR1 knockdown

| gene knocked down | mean correlation with KSR1 profile | mean distance from KSR1 profile |
| --- | --- | --- |
| IL1RAPL1 | -0.237 | 0.949 |
| USP6 | -0.649 | 2.44 |
| BTBD1 | -0.462 | 1.92 |
| BBOX1 | 0.144 | 2.57 |
| VRK3 | 0.584 | 1.14 |
| ASCL1 | 0.897 | 1.34 |
| PNKP | 0.642 | 2.53 |
| SULT1A3 | -0.0659 | 1.61 |
| FCAR | -0.334 | 1.95 |
| LIMK2 | -0.368 | 2.71 |
| RBFOX1 | 0.178 | 1.95 |
| LRPAP1 | 0.466 | 0.997 |
| TPRXL | 0.267 | 1.49 |
| MBL2 | 0.375 | 1.26 |
| CDH2 | 0.0947 | 1.74 |
| KDM5B | -0.106 | 1.82 |
| NSMCE3 | 0.414 | 3.4 |
| IRF5 | 0.0335 | 1.37 |
| LOXL2 | -0.712 | 3.3 |
| STX18 | -0.154 | 2.43 |
| ARL5A | -0.83 | 3.18 |
| IFITM3 | 0.0194 | 1.82 |
| STAB2 | -0.601 | 2.74 |
| PRELP | -0.509 | 1.53 |
| MYCN | -0.506 | 1.71 |
| VSNL1 | 0.228 | 1.47 |
| ANKRD20A1 | 0.777 | 1.03 |
| MSH4 | 0.094 | 2.52 |
| TEK | 0.072 | 3.11 |
| FBXL4 | 0.618 | 1.99 |
| N4BP2L2 | -0.706 | 5.34 |
| SBNO1 | -0.491 | 1.93 |
| MGA | -0.363 | 1.09 |
| TRMT6 | -0.425 | 1.94 |
| IRF3 | 0.376 | 1.17 |
| NFX1 | 0.419 | 2.93 |
| OASL | -0.0245 | 1.75 |
| LARP4B | 0.647 | 1.07 |
| MPPED1 | -0.561 | 3.64 |
| MAPKAPK5-AS1 | 0.31 | 2.42 |
| SOCS2 | 0.22 | 1.51 |
| GPR162 | 0.86 | 0.877 |
| PSMA2 | -0.0558 | 2.5 |
| KRT85 | -0.275 | 2.16 |
| ESPN | 0.287 | 3.97 |
| CRYBB1 | -0.161 | 3.55 |
| ADGRG5 | 0.313 | 2.14 |
| DCAKD | 0.846 | 2.04 |
| ANKRD49 | -0.345 | 1.88 |
| CHRNA4 | -0.389 | 1.81 |

Laid out differently: results already given
gene knocked down,mean correlation with KSR1 profile,mean distance from KSR1 profile
ASCL1,0.897,1.34
PNKP,0.642,2.53
SULT1A3,-0.0659,1.61
FCAR,-0.334,1.95
